Reference: patent US20080221021A1, “Novel Corticotropin-Releasing Factor Receptor 1 (Crfr1) Agonist” (Max-Planck-Gesellschaft Zur Forderung Der, priority 2004, published 2008)
Part of at least one peptide drawing is inferred or uncertain, most often the ends.

Test system: C57BL/6J mice
Assay: Forced swim test, i.c.v. injection
Format: in vivo, mouse
Description: Nine-week old male C57BL/6J (Centre D'Elevage Janvier, Sultzfeld, France) were individually housed in macrolon cages according to the recommendations of the Society for Laboratory Animal Science (Germany). All experiments were carried out in accordance with the European Council Directive (86/609/EEC) with the permission of the Animal Protection Law enforced by the District Government of Braunschweig, State of Lower Saxony, Germany, which is in full agreement with the APA ethical guidelines. All efforts were made to minimize animal suffering. The number of mice per group was 9-11.
All peptides were dissolved in aCSF except for the CRFR2-selective antagonist antisauvagine-30 (aSvg-30) (20) that was initially dissolved in 10 mM aqueous acetic acid and diluted with the same volume of two-fold concentrated aCSF. The final pH of the peptide solutions was 7.4. The exact peptide concentration of the injection solutions was determined by amino acid analysis with a Beckman HPLC analyzer system 6300. Total hydrolysis of the peptides was carried out in the presence of 1 nmol norvaline as internal standard with 6 M HCl for 24 h at 100° C.
For the forced swim test (FST), C57BL/6J mice cannulated in the lateral ventricles were subjected to swim sessions in individual glass cylinders (height 39 cm, diameter 21.7 cm) containing water, 15-cm deep, at 23-25° C. On day 1, all animals were placed in the cylinder for a preswim session of 15 min. On the test day 24 h later (day 2), the mice were subjected to a testswim session for 6 min. The water was changed between subjects. All testswim sessions were recorded by a video camera positioned directly above the cylinder. A component observer blind to treatment scored the videotapes. The behavioral measure scored was the duration of immobility, defined as time spent still or only using righting movements to keep the head over water. […] The behavioral data are expressed as mean±SEM, and were analysed using a two- and one-way ANOVA, with Bonferri/Dunn test applied, post hoc, for individual between-group comparisons at the p<0.05 level of significance.

Question: For `CC[C@H](C)[C@H](NC(=O)[C@H](CC(=O)O)NC(=O)[C@H](CC(C)C)NC(=O)[C@H](CC(C)C)NC(=O)[C@H](CCCCN)NC(=O)[C@H](CCCNC(=N)N)NC(=O)[C@H](CC(N)=O)NC(=O)[C@H](CO)NC(=O)[C@H](Cc1c[nH]cn1)NC(=O)[C@H](C)NC(=O)[C@H](CCC(N)=O)NC(=O)[C@H](CCC(N)=O)NC(=O)[C@H](C)NC(=O)[C@H](CC(C)C)NC(=O)[C@H](CCC(N)=O)NC(=O)[C@H](CC(=O)O)NC(=O)[C@H](C)NC(=O)[C@H](CCCCN)NC(=O)[C@@H](NC(=O)[C@H](CCSC)NC(=O)[C@H](CCC(=O)O)NC(=O)[C@H](CC(C)C)NC(=O)[C@@H](NC(=O)[C@H](CCC(=O)O)NC(=O)[C@H](CCCNC(=N)N)NC(=O)[C@H](CC(C)C)NC(=O)[C@H](CC(C)C)NC(=O)[C@H](Cc1c[nH]cn1)NC(=O)[C@H](Cc1ccccc1)NC(=O)[C@@H](NC(=O)[C@H](CC(C)C)NC(=O)[C@H](CC(=O)O)NC(=O)[C@H](CC(C)C)NC(=O)[C@H](CO)NC(=O)[C@@H](NC(=O)[C@@H]1CCCN1C(=O)[C@@H]1CCCN1C(=O)[C@H](CCC(=O)O)NC(=O)[C@H](CCC(N)=O)NC(=O)[C@@H](N)CO)[C@@H](C)CC)[C@@H](C)O)C(C)C)[C@@H](C)O)C(=O)N[C@@H](C)C(N)=O` [oCRF, ovine CRF, reference compound], which “immobility time during the testswim session 24 h later (day 2)” value (300 ng i.c.v. 30 min before preswim (day 1)) is on record?
Answer: not

Question: And the “immobility time during the preswim session” value (300 ng i.c.v. 30 min before preswim (day 1), vs aCSF)?
Answer: significantly decreased the immobility time

Question: What about the “immobility time during the testswim session” value (300 ng i.c.v. 30 min before testswim (day 2), vs aCSF) of the same molecule?
Answer: significantly decreased the immobility time
